Source: paper doi:10.1101/373597
These are yes or no findings as the source states them, for the method shown. Binding seen in cells or lysates may run through a third protein. Some entries that bind do so weakly or less than the wild type. For some assays here: Sequences can lack the tags named with a protein.

Sequences of proteins named here, by UniProt entry; tags and fusion partners are left off. Residues count along the entry.
UniProt O60260: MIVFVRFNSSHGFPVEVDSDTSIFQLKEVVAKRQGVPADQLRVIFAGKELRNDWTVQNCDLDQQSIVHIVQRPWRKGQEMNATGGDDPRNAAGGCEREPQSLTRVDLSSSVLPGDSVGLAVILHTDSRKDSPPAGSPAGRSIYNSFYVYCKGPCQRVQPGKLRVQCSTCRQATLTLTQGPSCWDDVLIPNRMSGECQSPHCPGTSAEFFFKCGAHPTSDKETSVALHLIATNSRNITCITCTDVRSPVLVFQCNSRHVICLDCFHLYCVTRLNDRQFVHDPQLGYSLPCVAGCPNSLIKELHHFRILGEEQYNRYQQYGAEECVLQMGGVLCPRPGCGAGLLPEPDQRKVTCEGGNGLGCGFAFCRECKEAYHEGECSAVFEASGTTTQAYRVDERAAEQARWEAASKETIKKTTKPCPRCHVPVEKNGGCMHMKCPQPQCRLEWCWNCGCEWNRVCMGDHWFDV
UniProt P19491, residues 22-883: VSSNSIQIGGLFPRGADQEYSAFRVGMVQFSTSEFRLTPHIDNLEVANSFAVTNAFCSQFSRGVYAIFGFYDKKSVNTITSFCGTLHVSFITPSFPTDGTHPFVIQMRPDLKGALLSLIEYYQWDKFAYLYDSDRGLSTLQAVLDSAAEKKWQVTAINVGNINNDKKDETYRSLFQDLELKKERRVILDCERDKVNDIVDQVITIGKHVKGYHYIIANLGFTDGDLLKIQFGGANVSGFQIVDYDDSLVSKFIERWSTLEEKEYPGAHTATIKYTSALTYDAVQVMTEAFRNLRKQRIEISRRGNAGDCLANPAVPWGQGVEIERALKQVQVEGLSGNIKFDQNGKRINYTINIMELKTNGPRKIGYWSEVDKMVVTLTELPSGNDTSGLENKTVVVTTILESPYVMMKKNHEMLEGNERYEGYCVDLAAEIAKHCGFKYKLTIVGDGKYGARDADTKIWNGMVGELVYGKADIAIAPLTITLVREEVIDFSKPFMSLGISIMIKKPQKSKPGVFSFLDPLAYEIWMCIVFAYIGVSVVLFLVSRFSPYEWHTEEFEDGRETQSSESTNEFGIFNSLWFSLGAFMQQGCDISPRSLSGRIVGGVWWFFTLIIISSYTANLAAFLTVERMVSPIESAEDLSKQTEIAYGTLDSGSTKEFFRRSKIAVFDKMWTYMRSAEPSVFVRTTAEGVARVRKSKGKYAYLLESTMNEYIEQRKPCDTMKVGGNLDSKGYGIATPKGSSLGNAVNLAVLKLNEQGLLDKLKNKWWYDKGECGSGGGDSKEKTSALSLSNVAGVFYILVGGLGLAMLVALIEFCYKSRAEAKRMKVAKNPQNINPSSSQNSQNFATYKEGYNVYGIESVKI
UniProt Q00960, residues 27-1482: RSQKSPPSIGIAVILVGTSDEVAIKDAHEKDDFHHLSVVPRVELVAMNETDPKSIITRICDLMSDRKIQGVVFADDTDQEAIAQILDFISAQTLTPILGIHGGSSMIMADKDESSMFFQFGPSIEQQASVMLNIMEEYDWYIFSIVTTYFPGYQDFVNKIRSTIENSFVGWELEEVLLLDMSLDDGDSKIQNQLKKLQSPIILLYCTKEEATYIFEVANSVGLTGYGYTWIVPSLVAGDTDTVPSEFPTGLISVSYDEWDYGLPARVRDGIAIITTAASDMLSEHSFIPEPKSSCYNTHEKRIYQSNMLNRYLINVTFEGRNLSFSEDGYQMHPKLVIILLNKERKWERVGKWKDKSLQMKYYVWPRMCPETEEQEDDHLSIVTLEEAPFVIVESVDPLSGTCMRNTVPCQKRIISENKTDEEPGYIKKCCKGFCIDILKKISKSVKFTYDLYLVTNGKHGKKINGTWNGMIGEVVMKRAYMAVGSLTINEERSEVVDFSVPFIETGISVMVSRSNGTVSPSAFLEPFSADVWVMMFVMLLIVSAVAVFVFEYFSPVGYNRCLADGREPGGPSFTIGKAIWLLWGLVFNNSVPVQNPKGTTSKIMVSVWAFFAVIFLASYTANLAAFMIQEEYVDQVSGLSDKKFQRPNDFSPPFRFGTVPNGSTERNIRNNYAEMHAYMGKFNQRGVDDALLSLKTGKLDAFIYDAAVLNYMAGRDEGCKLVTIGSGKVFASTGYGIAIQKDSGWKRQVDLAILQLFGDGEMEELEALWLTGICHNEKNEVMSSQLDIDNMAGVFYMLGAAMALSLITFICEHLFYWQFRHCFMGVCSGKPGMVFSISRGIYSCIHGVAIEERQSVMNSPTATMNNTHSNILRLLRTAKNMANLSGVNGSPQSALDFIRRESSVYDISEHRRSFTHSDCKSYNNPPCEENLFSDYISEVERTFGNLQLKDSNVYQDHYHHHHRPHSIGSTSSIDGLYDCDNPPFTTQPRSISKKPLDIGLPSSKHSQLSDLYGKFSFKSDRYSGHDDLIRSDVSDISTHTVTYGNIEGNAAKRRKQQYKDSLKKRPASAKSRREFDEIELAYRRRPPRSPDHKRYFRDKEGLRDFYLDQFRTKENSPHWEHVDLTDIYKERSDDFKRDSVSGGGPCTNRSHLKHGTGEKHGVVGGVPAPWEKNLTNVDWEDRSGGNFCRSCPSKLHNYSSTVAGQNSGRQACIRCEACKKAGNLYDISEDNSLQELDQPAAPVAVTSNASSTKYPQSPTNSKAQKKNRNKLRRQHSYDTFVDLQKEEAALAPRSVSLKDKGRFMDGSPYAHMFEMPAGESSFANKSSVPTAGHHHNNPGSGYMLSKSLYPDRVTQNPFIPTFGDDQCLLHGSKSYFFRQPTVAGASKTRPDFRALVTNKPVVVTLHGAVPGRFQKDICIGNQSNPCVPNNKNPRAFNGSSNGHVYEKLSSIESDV
UniProt P19490, residues 19-907: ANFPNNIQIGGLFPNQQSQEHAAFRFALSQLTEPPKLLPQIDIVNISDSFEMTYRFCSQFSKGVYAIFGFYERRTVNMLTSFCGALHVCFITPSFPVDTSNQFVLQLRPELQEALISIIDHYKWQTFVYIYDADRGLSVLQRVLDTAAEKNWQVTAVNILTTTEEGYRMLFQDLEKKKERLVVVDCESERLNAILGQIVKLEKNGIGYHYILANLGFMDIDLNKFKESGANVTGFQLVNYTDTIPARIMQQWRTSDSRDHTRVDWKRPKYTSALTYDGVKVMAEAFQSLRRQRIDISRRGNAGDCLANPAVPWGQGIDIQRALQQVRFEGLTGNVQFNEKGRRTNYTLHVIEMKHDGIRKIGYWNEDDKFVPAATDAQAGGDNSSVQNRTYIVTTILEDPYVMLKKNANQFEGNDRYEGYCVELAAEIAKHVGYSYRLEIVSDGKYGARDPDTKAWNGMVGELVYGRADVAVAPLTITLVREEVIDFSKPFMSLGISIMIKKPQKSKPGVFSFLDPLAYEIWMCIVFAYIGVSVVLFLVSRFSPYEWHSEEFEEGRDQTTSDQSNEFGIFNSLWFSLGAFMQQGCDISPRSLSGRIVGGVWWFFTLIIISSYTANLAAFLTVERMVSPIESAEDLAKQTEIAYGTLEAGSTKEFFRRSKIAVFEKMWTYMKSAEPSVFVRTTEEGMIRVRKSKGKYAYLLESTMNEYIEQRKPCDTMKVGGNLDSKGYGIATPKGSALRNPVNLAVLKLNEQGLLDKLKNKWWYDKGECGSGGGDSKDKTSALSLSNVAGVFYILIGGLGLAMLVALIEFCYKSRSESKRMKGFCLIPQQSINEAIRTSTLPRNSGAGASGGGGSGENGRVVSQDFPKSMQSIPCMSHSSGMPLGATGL

Tests used:
Myc-Parkin = Myc-Parkin (UniProt O60260); test: co-IP
GFP-Homer1 = target: T1, GFP-Homer1 (UniProt Q9Z214); test: co-IP
T1 sequence: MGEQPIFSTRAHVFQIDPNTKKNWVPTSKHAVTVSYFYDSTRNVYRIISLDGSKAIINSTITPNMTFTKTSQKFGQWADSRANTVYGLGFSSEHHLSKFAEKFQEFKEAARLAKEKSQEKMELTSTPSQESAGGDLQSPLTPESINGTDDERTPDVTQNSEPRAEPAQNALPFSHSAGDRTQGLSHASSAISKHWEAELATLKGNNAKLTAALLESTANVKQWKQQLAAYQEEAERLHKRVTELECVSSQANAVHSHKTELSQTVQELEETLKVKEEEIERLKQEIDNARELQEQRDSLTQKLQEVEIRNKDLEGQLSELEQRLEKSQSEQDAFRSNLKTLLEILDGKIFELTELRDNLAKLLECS

Substance | binding (Myc-Parkin) | binding (GFP-Homer1)
GFP-GluA2 (pCI-SEP-GluA2) (from UniProt P19491 22-883) (receptor) | no binding | 
GFP-GluN2B (pCI-SEP-GluN2B) (from UniProt Q00960 27-1482) (receptor) | no binding | 
GFP-GluN1 (pCI-SEP-GluN1) (from UniProt P35439 19-938) (receptor) | binds | 

Second part, the substance after the results:

binding (Myc-Parkin) | binding (GFP-Homer1) | Substance
 | binds | GFP-Parkin WT (from UniProt O60260 1-465) (enzyme)
no binding |  | GFP-GluA1 (pCI-SEP-GluA1) (from UniProt P19490 19-907) (receptor)
